How the values were obtained:
Type in all cases: cell-based
γ-globin gene promoter = assay: Dual luciferase reporter assay (μLCRβprRlucAγprFluc cassette) in GM979 cells; details: Ambroxol at 1 μM, Desloratadine at 1 μM, Resveratrol at 10 μM, Benserazide at 0.03 μM (or a range of 30 nM-5 μM), MS-275 at 5 μM, NSC-95397 at 1 μM; versus sodium Butyrate at 2000 μM
Description: Cell-based screen for γ-globin inducing compounds in GM979 cells (Skarpidi, et al. Blood 2000; 96:321-326). Mini-gene construct integrated into GM979 cell genome. The readout is Firefly/Renilla luciferase ratio, and is designed to identify only strong inducers of the γ-globin promoter, and specificity for the γ- vs. the […]γ-globin gene. This second assay confirmed 12/15 candidates.
This assay is […], and consists of a dual-luciferase reporter construct containing the LCR and the […] luciferase and the Aγ-globin promoter linked to firefly luciferase (μLCRβprRlucAγprFluc cassette), stably-transfected into GM979 cells. The orientation of the promoters and μLCR allowed detection only of strong, specific inducers of the γ-globin gene promoter. This assay is also been predictive of in vivo HbF-inducing activity.
The γ-globin-specificity of hits was determined in a secondary assay employing a stably-transfected dual-luciferase reporter construct containing the LCR and the β-globin promoter linked to renilla luciferase and the Aγ-globin promoter linked to firefly luciferase (μLCRβprRlucAγprFluc cassette) (FIG. 2B).

γ-globin mRNA [1] = assay: γ-globin mRNA in cultured primary human erythroid progenitors (BFU-e), real-time PCR; details: primary erythroid progenitors in vitro
Method: Erythroid progenitors were cultured from cord blood CD34+ cells. […] Each compound was tested in three different cultures. […] On day 14, RNA was extracted from cultured erythroid cells, and relative quantification PCR was performed. Briefly, cDNA was generated from equal amounts of total RNA extracted using The PerfectPure RNA Purification Kit (5 Prime Inc Gaithersburg, Md.). Real-time PCR was performed using an ABI 7500 Real-Time PCR system (Applied Biosystems, Foster City, Calif.). Levels of globin mRNA were calculated by the ΔΔCt method. […] GAPDH levels were used for standardization. Western blotting Nuclear extract of K562 cells and 14-day-old BFU-e were analyzed by electrophoresis using 5-24% gradient SDS-polyacrylamide mini-gels (BIORAD Laboratories. Hercules Calif.). Proteins in the gels were transferred to Immobilon-P membranes. Blots were then incubated with BCL11A polyclonal (Novus Biologicals, Littleton Co) or mouse monoclonal (Santa Cruz Biotechnology, Santa Cruz Calif.) antibodies, after washing blots were incubated with anti-rabbit IgG-horseradish peroxidase secondary antibody (ECL, Little Chalfont Buckinghamshire UK). BCL11A bands were detected on the X-ray film using Western Lightning Reagents (Perking Elmer Inc, Waltham, Mass.).

γ-globin mRNA [2] = assay: γ-globin mRNA gene expression in K562 cells; details: FIG. 5, K562 cells; tested Desloratadine 10 μM-100 μM, Resveratrol 5 μM-30 μM, NSC 1 μM-50 μM

## Clc1ccc2c(c1)CCc1cccnc1C2=C1CCNCC1 [Desloratadine, 8-Chloro-6,11-dihydro-11-(4-piperidinylidene)-5H-benzo[5,6]cyclohepta[1,2-b]pyridine]
γ-globin gene promoter
  activity compared with sodium Butyrate: significantly more active
γ-globin mRNA [1]; lower end of the range 5 nM to 3 μM
  lowest concentration with fetal hemoglobin (HbF) inducing activity: 5 nM
γ-globin mRNA [1]; range 5 nM to 3 μM
  upper end of the concentration range with fetal hemoglobin (HbF) inducing activity: 3 µM
γ-globin mRNA [2]
  concentration giving the most γ-globin mRNA expression: 50 µM
